From article doi:10.1101/2023.12.05.570080
Read-outs that look alike come from different tables or passages of the source. No constants are given. Whether binding was seen depends on the method and setting. Binding seen in cells or lysates may run through a third protein. These calls come from enrichment with a bait or labelling near it, and not all partners need be listed. Sequences can lack the tags named with a protein.

Assays:
Test in all cases: affinity purification with mass spectrometry
[1] = biological target: T1, MBD1, 2xStrep-HA-6xHis tagged (Arabidopsis thaliana) (UniProt Q5XEN5)
T1 sequence: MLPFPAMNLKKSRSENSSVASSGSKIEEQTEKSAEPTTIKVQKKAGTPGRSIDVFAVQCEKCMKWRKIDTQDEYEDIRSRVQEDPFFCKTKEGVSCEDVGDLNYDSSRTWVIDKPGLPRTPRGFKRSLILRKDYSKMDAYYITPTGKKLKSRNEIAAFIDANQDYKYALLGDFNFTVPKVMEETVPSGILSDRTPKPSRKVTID

[2] = biological target: T1, MBD1, 2xStrep-HA-6xHis tagged (Arabidopsis thaliana); remark: listed apart in the source
[3] = biological target: T2, MBD4, 2xStrep-HA-6xHis tagged (Arabidopsis thaliana) (UniProt Q9LYB9)
T2 sequence: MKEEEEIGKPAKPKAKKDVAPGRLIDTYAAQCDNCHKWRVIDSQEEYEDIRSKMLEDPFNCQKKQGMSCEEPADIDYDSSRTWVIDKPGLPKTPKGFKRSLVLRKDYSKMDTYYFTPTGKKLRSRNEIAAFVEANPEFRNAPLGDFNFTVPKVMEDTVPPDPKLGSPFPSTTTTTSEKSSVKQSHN

| binding [1] | binding [2] | binding [3] | Binder |
| --- | --- | --- | --- |
| binds | binds | binds | HUA2 (protein, UniProt Q9XER9 1-1392) MAPGRKRGASKAKAKGQLVLGDLVLAKVKGFPAWPAKISRPEDWDRAPDPKKYFVQFFGTEEIAFVAPPDIQAFTSEAKSKLLARCQGKTVKYFAQAVEQICTAFEGLQNHKSNALGDEDSLDATEPGLTKAEIVDGTDHIVIESERTDNFNFRVDPCFPKLDENNGEERKAEIRKLDSSSFLESKVKTTSPVSESLEHSSFDPKIKKEDFDKGTDGSACNEHFGNGQKKLANGKRIKKEAGGSDRKGEDTVHRDKSNNSHVPGGRTASGNSDSKKSKGLLTEKTSSKVSADKHENSPGIKVGVSGKKRRLESEQGKLAPRVDESSRAAKKPRCESADNKVKCEIDDGSDSTGTVSDIKREIVLGLGARGGNFQYDKEAVAYTKRQRQTMEHATSPSFSGSRDKSGKGHLEQKDRSSPVRNVKAPAAQSLKKRRAVCIYDEDDDEDPKTPLHGKPAIVPQAASVLTDGPKRANVCHSTSTKAKISAGSTESTEVRKFPLRKHCEDASRVLPSNAENSTNSLPVVKPINELPPKDVKQILQSPKMSPQLVLTNKHVAGQHKVVKSSVKVSGVVMAKKPQSDSCKEAVAGSDKISSSQSQPANQRHKSASVGERLTVVSKAASRLNDSGSRDMSEDLSAAMLDLNREKGSATFTSAKTPDSAASMKDLIAAAQAKRKLAHTQNSIFGNLNPSFLSISDTQGRSHSPFMVQNASASAAISMPLVVQGHHQQGSSPSNHGHQSLSRNQIETDDNEERRLSSGHKSVGGSLSCSTEAAISRDAFEGMLETLSRTRESIGRATRLAIDCAKYGLASEVVELLIRKLESESHFHRKVDLFFLVDSITQHSHSQKGIAGASYVPTVQAALPRLLGAAAPPGTGASDNRRKCLKVLKLWLERKVFPESLLRRYIDDIRASGDDATGGFSLRRPSRSERAVDDPIREMEGMLVDEYGSNATFQLPGFFSSHNFEDDEEDDDLPTSQKEKSTSAGERVSALDDLEIHDTSSDKCHRVLEDVDHELEMEDVSGQRKDVAPSSFCENKTKEQSLDVMEPVAEKSTEFNPLPEDSPPLPQESPPPLPPLPPSPPPPSPPLPPSSLPPPPPAALFPPLPPPPSQPPPPPLSPPPSPPPPPPPPSQSLTTQLSIASHHQIPFQPGFPPPTYPLSHQTYPGSMQQDRSSIFTGDQIVQGPGNSSRGGLVEGAGKPEYFVQQSSSFSPAGVCSSREPSSFTSSRQLEFGNSDVLFNPEASSQNHRFQPSTPLSQRPMVRLPSAPSSHFSYPSHIQSQSQHSYTHPYPFPPQRDDARRYRNEEPWRIPSSGHSAENQNGAWIHGRNSHPGLPRVTDSFFRPPPERPPSGTMNYQPSAASNLQAVPAIPGHTAPQMLPSRPDIPTVNCWRPA |
|  | binds |  | HIRA (protein, UniProt Q9LXN4 1-1024) MIAEKPFWVKHEGLQIFSIDVQPNGERFATGGGDHKVRIWNMKSVDKDLQNIDTKERLLATLRDHFGSVNCVRWAKNSRYVASGSDDQVIQIHERKPGSGTTEFGSGEAPDVENWKAVMTLRGHTADVVDLNWSPDDSMLASGSLDNTVHIWNMRTGMCTTVLRGHLSLVKGVTWDPIGSFIASQSDDKTVIIWRTSDWGMAHRTDGHWAKSLGSTFFRRLGWSPCGHFLTTTHGFQKPKHSAPVLERGEWSVAYDFLGHSAPIIVVRFNHSMFKRIPSSTHETKQVGWSNGTSKSGEKDLQSYNVIAMGSQDRTITVWTTGSARPLFVAKHFFGQSVVDLSWSPDGYSLFACSLDGTVAMIHFDPKELGVRLTDTELDELKKSRYGDVRGRQANLVESPAQLLLETASTKQAGSKRAASDVQQNQVTTKPSVSVESTAKRRKSQVDDRNKAAESTGQTLNKASTLNRVSSPVNQKVYRRPDGRKRIIPEAVGVPQQENNIMINGESHNFLPASAAAPAKGDSGDFPVEISNRDLSGKEIVCRNPDLKERSRITARATITESLVIEKVPGTSGRDGVLNVEQSVGIKESSSTDLLIRVFDWKDGEAAPPVCLEACPREHALDTVGAVSTSMVKETEISCKKSGETLWSDRIMGRVTVLAGNPNFWAAGCEDGSLQVYTKCGRRAMPTMMMGSAATFIDCDDSWKLLLVTRKGSLYVWDLFNRKCVLHDSLSSLVSSDVNLSSTVKGTIKVISVKLSKSGSPLVVLATRHAFLFDTSLMCWLRVADDCFPASNFSSSWNLGSAPCGELAGLQVDVRKYMARKPGWNRITDDGTQTRAHLESQLASSLALESPNEYRQCLLAYVRFLAREADESRLREVCESFLGPPTGMAEAASSDTNLSWDPYVLGVKKHKLLRNDILPAMASNRKVQRLLNEFIDLLSEYEDVETADPAPKGSTPTMNCGGVPSSLDQIGSDPPAMTATTPMTIDNDKPVSLENPAALDIGVCEKTGSEDRDKQDQNSRDSGS |
|  | binds |  | UBN2 (protein, UniProt F4I700 1-717) MEDEPKLPTDDGPTFNESCKISSEILTAGDRKLLKVELLKEETTLVSWKKLMDEASKENGGLFVSAPERLLNANPNLEFRLAPGAQTENEMVNQPHPNRLNSVIAKIERLYMGKDGSDGEELDGAPDDDDYDTEDSFIDDAELDEYFEVDNSPIKHDGFFVNRGKLERIEPSATSNQQQPKKRRRKESAKPCGDVVDVSRKRAKMAKTAGGKDQSASPGPSSKKISNDSKTVQDSFSPLKAQNGNDSLVLENVKHTDKANHQPMNATSPKSKAAGSSGPLHPKCSSKSVHEQSNSPPGKSRPNVSAKSAVVRQQVNNGMPDLDIATESKTSIQISKKSGSNGRPKYSTLEKAIRNLEKLVAESRPPAATENQDADISSQAVKRGLPGDVKLHLAKVARIAYASQGEISGELINRLMGIVGHLIQIRSLKRNLKIMIDSIVTANREKDTRFQRIKSEITEMLKTQVPLVESQETNQEAGTSDDFQDVGSLGKSPVKKFVMDVALEEKLCDLYDVFVEGMDEHSGSQIRKLYSDLAQLWPNSLVDNHEIRRAICREKERRRALEGNIGKEMDQTKITKKKQTQLVPKSEGITYPDKTSGVEVKASVVLTATTTSLVDCQPAADSSFERSKQQHEKLKRTSSLSNPAAEGKKVRRKTEPALEETHLPAEKPLVLALKRQTHLKSKTHKQVQVHPQSKAHKQAQVHPKAKTQTPPDLNLPS |

The next lines start with the binder.

| Binder | binding [1] | binding [2] | binding [3] |
| --- | --- | --- | --- |
| UBN1 (protein, UniProt Q8RX78 1-684) MSEVNEMSGGSIGGELLRASPKVLTAGDRKLLKVELRPGDTTYVSWKKLMRDAGKVNGLSASVPDPPPNANPNLEFRIAPGHPVEIETNEQPHSNRFNAVIEKIERLYKGNDSSDGEELDGAPDDDEYDTEDSFIDDAELDEYFEVDNSTVKHDGFYVNRGKLERMEPSTTSNQQPKKRRRKDSAKPCRDAVDVSDKHTKLSITARKKDQSTAPGSWKTQESPLPSGAQDANTSVPLDDVKHSDRANHQSRNDTSHKSRETGSSSALHQKYSNKSLHQQSTSLLGKSPPNVFAEVTVVRQKENNGMHQLANVTGSRQSSQASKKDGSNVKSKTSILEKAIRELEKVVVESRPPAITENQEADTSSQAVKRRLPRDVKLKLAKVARIAQASQGKHSTELINRLMSIVGHLIQLRSLKRNLKIMIDMGDSATREKDTRFKQINNEVLDMIKAKVSLMESQAIKPEGATSDDFQDSVEKPSLKKFVMDAALEDKLCDLYDIFIDGLDEDQGPQTKKLYVNLAELWPNRLMDYRGIKHAIFRAKERRKALYGNLAKEMDQTKMKKSMKQLVPRTDCTAQPNTELVVQRQHSGEKKLIVDPNATSTSVVTSQTMVDRSNQQQPEKLKGISSSCNPTEETRVVKRKNEAVMAEKQVVLALKKPEHPQTRVIPAPQNLNIPRTTPDLNLPS | binds | binds |  |
| HAT3.1 (protein, UniProt Q04996 1-723) MYKAVSKRVTRSSGSGLKQTNVDNGGEISPTVDRVSEQGKSSEAGSHMPTDANGNGHLHHEIMDHGKGNEEQKPTPQTVKKDSNTNTKFSGSHRELVIGLPCRGQFEIHNRSRASTSSKRLGGGGERNVLFASHKRAQRSKEDAGPSSVVANSTPVGRPKKKNKTMNKGQVREDDEYTRIKKKLRYFLNRINYEQSLIDAYSLEGWKGSSLEKIRPEKELERATKEILRRKLKIRDLFQHLDTLCAEGSLPESLFDTDGEISSEDIFCAKCGSKDLSVDNDIILCDGFCDRGFHQYCLEPPLRKEDIPPDDEGWLCPGCDCKDDSLDLLNDSLGTKFSVSDSWEKIFPEAAAALVGGGQNLDCDLPSDDSDDEEYDPDCLNDNENDEDGSDDNEESENEDGSSDETEFTSASDEMIESFKEGKDIMKDVMALPSDDSEDDDYDPDAPTCDDDKESSNSDCTSDTEDLETSFKGDETNQQAEDTPLEDPGRQTSQLQGDAILESDVGLDDGPAGVSRRRNVERLDYKKLYDEEYDNVPTSSSDDDDWDKTARMGKEDSESEDEGDTVPLKQSSNAEDHTSKKLIRKSKRADKKDTLEMPQEGPGENGGSGEIEKSSSSACKQTDPKTQRLYISFQENQYPDKATKESLAKELQMTVKQVNNWFKHRRWSINSKPLVSEENVEKLKTGKEGECETSVAGSSKQTMETESVAEKPTNTGSRKRRRK | binds | binds | binds |
